{"source": "PubChem BioAssay AID504774 (Drosophila RNAi Screening Center, 2011)", "purpose": "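Knock-downs that shift viability of MMS-exposed cells relative to untreated ones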 (primary screen)", "cell system": "Drosophila Kc167 cells", "reagent": "long dsRNA against Drosophila genes, about 0.25 µg dsRNA per well", "timing": "about 6 days: 3 days knock-down, then 3 days with or without MMS", "treatment": "methyl methanesulphonate 0.004% (w/v) for 3 days after knock-down", "read-out": "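Viability in wells given MMS, read as ATP luminescence, normalised by quantiles plate by plate and averaged across replicates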", "direction": "mean viability with MMS and viability with MMS: higher = more surviving cells after MMS", "note": "The screen tested about 23,000 reagents; shown is an unselected part of those that have a named target and a result. 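Values are quantile-normalised luminescence on an arbitrary scale; higher means more cells surviving MMS.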 Not all columns of the deposit are shown."}
{"target gene": "Cpr49Ab (GeneID 36345)", "dsRNA": "DRSC05341", "mean viability with MMS": 3.55e6, "viability with MMS, replicate 1": 4.04e6}
{"target gene": "GstE3 (GeneID 37108)", "dsRNA": "DRSC06673", "mean viability with MMS": 3.42e6, "viability with MMS, replicate 1": 3.79e6}
{"target gene": "CG42663 (GeneID 36403)", "dsRNA": "DRSC06158", "mean viability with MMS": 3.64e6, "viability with MMS, replicate 1": 4.15e6}
{"target gene": "CG42663 (GeneID 36403)", "dsRNA": "DRSC06404", "mean viability with MMS": 3.59e6, "viability with MMS, replicate 1": 3.79e6}
{"target gene": "CG32061 (GeneID 39196)", "dsRNA": "DRSC22605", "mean viability with MMS": 3.68e6, "viability with MMS, replicate 1": 4.19e6}
{"target gene": "RabGGTa (GeneID 40617)", "dsRNA": "DRSC12189", "mean viability with MMS": 3.53e6, "viability with MMS, replicate 1": 4.07e6}
{"target gene": "Gug (GeneID 46156)", "dsRNA": "DRSC11179", "mean viability with MMS": 3.55e6, "viability with MMS, replicate 1": 3.95e6}
{"target gene": "Caf1-105 (GeneID 36107)", "dsRNA": "DRSC06209", "mean viability with MMS": 3.41e6, "viability with MMS, replicate 1": 3.90e6}
{"target gene": "CG6005 (GeneID 42279)", "dsRNA": "DRSC15945", "mean viability with MMS": 3.60e6, "viability with MMS, replicate 1": 4.12e6}
{"target gene": "CG32485 (GeneID 38363)", "dsRNA": "DRSC22666", "mean viability with MMS": 3.37e6, "viability with MMS, replicate 1": 3.85e6}
{"target gene": "CG13895 (GeneID 38087)", "dsRNA": "DRSC08365", "mean viability with MMS": 3.46e6, "viability with MMS, replicate 1": 3.92e6}
{"target gene": "CG4611 (GeneID 38601)", "dsRNA": "DRSC10434", "mean viability with MMS": 3.57e6, "viability with MMS, replicate 1": 4.27e6}
{"target gene": "CG5402 (GeneID 43306)", "dsRNA": "DRSC15792", "mean viability with MMS": 3.54e6, "viability with MMS, replicate 1": 3.91e6}
{"target gene": "RhoGAP100F (GeneID 43758)", "dsRNA": "DRSC15409", "mean viability with MMS": 3.48e6, "viability with MMS, replicate 1": 4.01e6}
{"target gene": "PH4alphaNE3 (GeneID 326114)", "dsRNA": "DRSC16541", "mean viability with MMS": 3.57e6, "viability with MMS, replicate 1": 3.98e6}

4 entries from above, set out differently:
CG13895 (GeneID 38087) [DRSC08365] — mean viability with MMS: 3.46e6; viability with MMS, replicate 1: 3.92e6
CG4611 (GeneID 38601) [DRSC10434] — mean viability with MMS: 3.57e6; viability with MMS, replicate 1: 4.27e6
CG5402 (GeneID 43306) [DRSC15792] — mean viability with MMS: 3.54e6; viability with MMS, replicate 1: 3.91e6
RhoGAP100F (GeneID 43758) [DRSC15409] — mean viability with MMS: 3.48e6; viability with MMS, replicate 1: 4.01e6

Next entries follow.
{"target gene": "Nup214 (GeneID 46091)", "dsRNA": "DRSC04421", "mean viability with MMS": 3.56e6, "viability with MMS, replicate 1": 3.86e6}
{"target gene": "CG17290 (GeneID 36938)", "dsRNA": "DRSC06662", "mean viability with MMS": 3.55e6, "viability with MMS, replicate 1": 4.03e6}
{"target gene": "meep (GeneID 261663)", "dsRNA": "DRSC07948", "mean viability with MMS": 3.49e6, "viability with MMS, replicate 1": 4.05e6}
{"target gene": "Or47a (GeneID 36187)", "dsRNA": "DRSC07491", "mean viability with MMS": 3.57e6, "viability with MMS, replicate 1": 3.87e6}
{"target gene": "Ube3a (GeneID 39266)", "dsRNA": "DRSC10600", "mean viability with MMS": 3.57e6, "viability with MMS, replicate 1": 4.04e6}
{"target gene": "mRpS21 (GeneID 318249)", "dsRNA": "DRSC12965", "mean viability with MMS": 3.74e6, "viability with MMS, replicate 1": 4.17e6}
{"target gene": "mRpS21 (GeneID 318249)", "dsRNA": "DRSC21357", "mean viability with MMS": 3.69e6, "viability with MMS, replicate 1": 4.24e6}
{"target gene": "dgrn (GeneID 40725)", "dsRNA": "DRSC12154", "mean viability with MMS": 3.43e6, "viability with MMS, replicate 1": 3.75e6}
{"target gene": "CG9270 (GeneID 35366)", "dsRNA": "DRSC03182", "mean viability with MMS": 3.52e6, "viability with MMS, replicate 1": 4.13e6}
